PubChem BioAssay AID652243, Drosophila RNAi Screening Center, 2013

Purpose: 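Fly genes required for human androgen receptor driven transcription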 (primary screen)
Cells: Drosophila S2R+ cells
Reagents: long dsRNA against Drosophila genes
Duration: 72 h (48 h, then 24 h hormone)
Treatment: synthetic androgen R1881 at 10 nM for 24 h
Detection: 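Firefly light from an androgen-responsive reporter and Renilla control light per well, raw and unnormalised, for each of two replicates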
Direction: firefly reporter light: higher = more light from androgen-responsive reporter; Renilla control light: higher = more constitutive control signal (cell number, transfection)
Rule for the call: 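Across duplicate plates, a knock-down whose log firefly/Renilla ratio shifted a set fold down or up from the GFP/LacZ control mean was a hit; the downward cut appears as both 1.5 and 3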
Calls: active = hit: reporter lowered or raised; inactive = no hit
In all, the deposit lists about 24,000 reagents; this is a random part of those with a known target gene and a result. Over the whole deposit, 246 (1%) were called active. 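Plates not normalised; calls are printed but the firefly/Renilla ratio behind them is not deposited; fold cut for lowering reported inconsistently.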 The raw values are shown without normalisation. Names joined by + are all predicted targets of the reagent. No sequences are given here. Not given: the amount of reagent.

The opening 3 records as a preview:
no.	gene knocked down	amplicon	firefly reporter light, replicate 1	firefly reporter light, replicate 2	Renilla control light, replicate 1	Renilla control light, replicate 2	call
1	Mdh1	DRSC02846	3.26e5	2.49e5	2.42e6	2.10e6	inactive
2	CG4318	DRSC19887	4.89e5	6.39e5	4.59e6	5.44e6	inactive
3	CG7715	DRSC16301	2.83e5	2.18e5	2.88e6	3.31e6	inactive

The listing, repeating the preview:
no.	gene knocked down	amplicon	firefly reporter light, replicate 1	firefly reporter light, replicate 2	Renilla control light, replicate 1	Renilla control light, replicate 2	call
1	Mdh1	DRSC02846	3.26e5	2.49e5	2.42e6	2.10e6	inactive
2	CG4318	DRSC19887	4.89e5	6.39e5	4.59e6	5.44e6	inactive
3	CG7715	DRSC16301	2.83e5	2.18e5	2.88e6	3.31e6	inactive
4	CG11912	DRSC00332	8.39e5	8.21e5	2.58e6	1.63e6	inactive
5	CG11560	DRSC09843	1.15e6	9.60e5	2.36e6	2.17e6	inactive
6	CG11560	DRSC27017	4.36e5	3.10e5	9.72e5	4.17e5	inactive
7	tinc	DRSC14798	84289	94313	9.86e5	1.28e6	inactive
8	tinc	DRSC14799	54057	72366	7.35e5	9.81e5	inactive
9	tinc	DRSC16308	35504	47567	6.91e5	1.25e6	inactive
10	tinc	DRSC16309	1.57e5	1.74e5	2.65e6	2.27e6	inactive
11	CG13720	DRSC08329	2.82e5	2.94e5	1.07e6	1.23e6	inactive
12	CG13720	DRSC23787	1.03e6	9.19e5	8.32e5	8.34e5	inactive
13	Cpr72Ec	DRSC10449	1.05e5	46914	4.92e5	4.37e5	inactive
14	CG1092	DRSC12151	30990	51767	3.34e5	4.81e5	inactive
15	CG1092	DRSC24479	9.21e5	1.08e6	1.07e6	1.15e6	inactive
16	PIG-F	DRSC11069	2.62e5	1.99e5	2.65e6	2.28e6	inactive
17	PIG-F	DRSC27027	3.96e5	2.69e5	6.78e5	3.91e5	inactive
18	CG18294 + 825-Oak + CG32214 + 2 more	DRSC22210	5.89e5	6.43e5	9.16e5	9.68e5	inactive
19	TfIIS	DRSC03455	4.67e5	5.94e5	1.25e6	1.55e6	inactive
20	TfIIS	DRSC24533	1.58e5	2.14e5	7.47e5	5.36e5	inactive
21	RpL7A	DRSC18709	1.07e5	1.72e5	1.50e6	1.69e6	inactive
22	RpL7A	DRSC28833	2.30e5	2.05e5	5.32e5	6.28e5	inactive
23	Aef1	DRSC11605	2.54e5	2.60e5	2.42e6	2.92e6	inactive
24	Cyp309a1	DRSC00747	1.12e5	1.11e5	8.58e5	8.08e5	inactive
25	CG6791	DRSC16118	63692	1.12e5	4.17e5	5.27e5	inactive
26	CG6791	DRSC29079	6.28e5	7.42e5	1.55e6	1.43e6	inactive
27	CG13065	DRSC09948	2.03e5	1.38e5	1.84e6	1.34e6	inactive
28	CG13065	DRSC28005	5.01e5	3.93e5	1.49e6	1.54e6	inactive
29	CG8507	DRSC16435	1.09e5	1.09e5	2.06e6	1.89e6	inactive
30	CG11018	DRSC06024	9.96e5	5.37e5	9.03e5	8.35e5	inactive
31	CG11018	DRSC28771	4.39e5	5.56e5	1.07e6	9.99e5	inactive
32	fmt	DRSC09717	8.15e5	8.56e5	1.27e6	1.55e6	inactive
33	CG5080	DRSC00677	5.26e5	6.23e5	1.23e6	1.01e6	inactive
34	CG2767	DRSC15451	39440	64259	2.51e5	5.09e5	inactive
35	CG2767	DRSC26830	4.00e5	3.25e5	5.20e5	3.43e5	inactive
36	CG3216	DRSC04347	2.78e5	4.57e5	1.49e6	2.11e6	inactive
37	CG3216	DRSC24945	8.15e5	8.41e5	7.30e5	6.89e5	inactive
38	CG3216	DRSC39319					inactive
39	Stoml2	DRSC04326	9.17e5	6.94e5	9.17e5	1.07e6	inactive
40	ChAT	DRSC16609	3.23e5	2.43e5	3.91e6	2.59e6	inactive
41	ChAT	DRSC22755	7.35e5	9.37e5	1.71e6	2.58e6	inactive
42	Grx3	DRSC02966	9.33e5	9.41e5	1.74e6	2.71e6	inactive
43	CG11679	DRSC19415	78606	82290	6.24e5	5.82e5	inactive
44	CG9536	DRSC03254	6.50e5	7.32e5	1.19e6	1.20e6	inactive
45	CG9536	DRSC24736	7.81e5	8.76e5	1.02e6	1.01e6	inactive
46	CG13829	DRSC14679	3.32e5	3.68e5	2.12e6	2.05e6	inactive
47	Nepl3	DRSC02681	9.48e5	1.65e6	1.28e6	1.93e6	inactive
48	CG33476	DRSC22888	9.06e5	1.23e6	1.60e6	2.51e6	inactive
49	CG34376	DRSC14696	2.61e5	2.24e5	3.12e6	3.63e6	inactive
50	CG34376	DRSC14701	2.19e5	2.58e5	2.74e6	3.13e6	inactive
51	CG34376	DRSC24983	8.05e5	1.16e6	9.01e5	8.82e5	inactive
52	CG34376	DRSC25207	5.08e5	1.02e6	7.90e5	7.20e5	inactive
53	CG3699	DRSC18171	2.35e5	3.10e5	4.83e6	3.11e6	inactive
54	CG3699	DRSC18642	2.67e5	3.04e5	3.71e6	3.93e6	inactive
55	CG9171	DRSC03152	7.29e5	6.61e5	2.02e6	2.33e6	inactive
56	CG9171	DRSC21813	4.92e5	3.89e5	3.07e6	3.95e6	inactive
57	CG9171	DRSC24830	1.02e6	7.77e5	1.41e6	1.42e6	inactive
58	Sclp	DRSC19851	1.13e5	88914	1.02e6	7.97e5	inactive
